According to US5846538A, “Immune reactivity to HER-2/neu protein for diagnosis and treatment of malignancies in which the her-2/neu oncogene is associated” (University of Washington, priority 1995, dated 1998):
Part of at least one peptide drawing is inferred or uncertain, most often the ends. No end group written: not given here.

Test system: peripheral blood mononuclear cells (PBMC)
Experiment: standard proliferation assay of PBMC (3H-thymidine), CD4+ T cell response
Format: cell-based, human
Conditions: tetanus toxoid 5 μg/ml, p185 5 μg/ml, peptides 50 μg/ml, 4 days
[1] = breast cancer patient A, HER-2/neu status Negative
[2] = breast cancer patient B, HER-2/neu status Positive
[3] = breast cancer patient C, HER-2/neu status Positive
[4] = breast cancer patient D, HER-2/neu status Positive

CC(C)C[C@H](NC(=O)[C@@H](N)[C@@H](C)O)C(=O)N[C@@H](CCC(=O)O)C(=O)N[C@@H](CCCNC(=N)N)C(=O)N1CCC[C@H]1C(=O)N[C@@H](CCCCN)C(=O)N[C@H](C(=O)N[C@@H](CC(C)C)C(=O)N[C@@H](CO)C(=O)N1CCC[C@H]1C(=O)NCC(=O)N[C@@H](CCCCN)C(=O)N[C@@H](CC(N)=O)C(=O)NCC(=O)N[C@H](C(=O)O)C(C)C)[C@@H](C)O [p1166-1180]
Stimulation Index (S.I.) [1]: 2 | Stimulation Index (S.I.) [2]: 2 | Stimulation Index (S.I.) [3]: < 2 | Stimulation Index (S.I.) [4]: < 2

CC[C@H](C)[C@H](NC(=O)CNC(=O)[C@H](CC(C)C)NC(=O)[C@H](CC(C)C)NC(=O)[C@H](CCCNC(=N)N)NC(=O)[C@@H](N)CO)C(=O)N[C@@H](CS)C(=O)N[C@@H](CC(C)C)C(=O)N[C@H](C(=O)N[C@@H](CO)C(=O)N[C@H](C(=O)N[C@H](C(=O)N[C@@H](CCC(N)=O)C(=O)N[C@@H](CC(C)C)C(=O)N[C@H](C(=O)O)C(C)C)C(C)C)[C@@H](C)O)[C@@H](C)O [p783-797]
Stimulation Index (S.I.) [1]: 2 | Stimulation Index (S.I.) [2]: 19 | Stimulation Index (S.I.) [3]: < 2 | Stimulation Index (S.I.) [4]: 5

HLDMLRHLYQGCQVV [p42-56]
Stimulation Index (S.I.) [1]: 2 | Stimulation Index (S.I.) [2]: 26 | Stimulation Index (S.I.) [3]: < 2 | Stimulation Index (S.I.) [4]: 4
